Results are given in words; binding and its absence hold for the method and conditions named. Some binding calls cover weakened binding; strength is not graded here.
Tests used:
[1] = target: T1, human CI-M6PR domain1-3His6 (human, UniProt P11717 41-467); test: BLI (Octet Red96); biotinylated human domain1-3His6 on streptavidin sensors; 120 s association at pH 7.4 with VHH serially diluted 0-200 nM; 420 s dissociation at pH 7.4, 6.5, 6.0, 5.5 or 5.0 (one panel each)
T1 construct: Recombinant, made in HEK293 cells; Biotinylated with NHS-PEG4-biotin for BLI; unlabelled in SEC-MALLS and crystallisation; also called CI-M6PR hDom1-3His6; hDom1-3His6

Chains of the proteins cited; added tags and fusions are not shown. Lines headed by an entry give the natural chain unless they say otherwise; changes in a name come on top.
UniProt P11717: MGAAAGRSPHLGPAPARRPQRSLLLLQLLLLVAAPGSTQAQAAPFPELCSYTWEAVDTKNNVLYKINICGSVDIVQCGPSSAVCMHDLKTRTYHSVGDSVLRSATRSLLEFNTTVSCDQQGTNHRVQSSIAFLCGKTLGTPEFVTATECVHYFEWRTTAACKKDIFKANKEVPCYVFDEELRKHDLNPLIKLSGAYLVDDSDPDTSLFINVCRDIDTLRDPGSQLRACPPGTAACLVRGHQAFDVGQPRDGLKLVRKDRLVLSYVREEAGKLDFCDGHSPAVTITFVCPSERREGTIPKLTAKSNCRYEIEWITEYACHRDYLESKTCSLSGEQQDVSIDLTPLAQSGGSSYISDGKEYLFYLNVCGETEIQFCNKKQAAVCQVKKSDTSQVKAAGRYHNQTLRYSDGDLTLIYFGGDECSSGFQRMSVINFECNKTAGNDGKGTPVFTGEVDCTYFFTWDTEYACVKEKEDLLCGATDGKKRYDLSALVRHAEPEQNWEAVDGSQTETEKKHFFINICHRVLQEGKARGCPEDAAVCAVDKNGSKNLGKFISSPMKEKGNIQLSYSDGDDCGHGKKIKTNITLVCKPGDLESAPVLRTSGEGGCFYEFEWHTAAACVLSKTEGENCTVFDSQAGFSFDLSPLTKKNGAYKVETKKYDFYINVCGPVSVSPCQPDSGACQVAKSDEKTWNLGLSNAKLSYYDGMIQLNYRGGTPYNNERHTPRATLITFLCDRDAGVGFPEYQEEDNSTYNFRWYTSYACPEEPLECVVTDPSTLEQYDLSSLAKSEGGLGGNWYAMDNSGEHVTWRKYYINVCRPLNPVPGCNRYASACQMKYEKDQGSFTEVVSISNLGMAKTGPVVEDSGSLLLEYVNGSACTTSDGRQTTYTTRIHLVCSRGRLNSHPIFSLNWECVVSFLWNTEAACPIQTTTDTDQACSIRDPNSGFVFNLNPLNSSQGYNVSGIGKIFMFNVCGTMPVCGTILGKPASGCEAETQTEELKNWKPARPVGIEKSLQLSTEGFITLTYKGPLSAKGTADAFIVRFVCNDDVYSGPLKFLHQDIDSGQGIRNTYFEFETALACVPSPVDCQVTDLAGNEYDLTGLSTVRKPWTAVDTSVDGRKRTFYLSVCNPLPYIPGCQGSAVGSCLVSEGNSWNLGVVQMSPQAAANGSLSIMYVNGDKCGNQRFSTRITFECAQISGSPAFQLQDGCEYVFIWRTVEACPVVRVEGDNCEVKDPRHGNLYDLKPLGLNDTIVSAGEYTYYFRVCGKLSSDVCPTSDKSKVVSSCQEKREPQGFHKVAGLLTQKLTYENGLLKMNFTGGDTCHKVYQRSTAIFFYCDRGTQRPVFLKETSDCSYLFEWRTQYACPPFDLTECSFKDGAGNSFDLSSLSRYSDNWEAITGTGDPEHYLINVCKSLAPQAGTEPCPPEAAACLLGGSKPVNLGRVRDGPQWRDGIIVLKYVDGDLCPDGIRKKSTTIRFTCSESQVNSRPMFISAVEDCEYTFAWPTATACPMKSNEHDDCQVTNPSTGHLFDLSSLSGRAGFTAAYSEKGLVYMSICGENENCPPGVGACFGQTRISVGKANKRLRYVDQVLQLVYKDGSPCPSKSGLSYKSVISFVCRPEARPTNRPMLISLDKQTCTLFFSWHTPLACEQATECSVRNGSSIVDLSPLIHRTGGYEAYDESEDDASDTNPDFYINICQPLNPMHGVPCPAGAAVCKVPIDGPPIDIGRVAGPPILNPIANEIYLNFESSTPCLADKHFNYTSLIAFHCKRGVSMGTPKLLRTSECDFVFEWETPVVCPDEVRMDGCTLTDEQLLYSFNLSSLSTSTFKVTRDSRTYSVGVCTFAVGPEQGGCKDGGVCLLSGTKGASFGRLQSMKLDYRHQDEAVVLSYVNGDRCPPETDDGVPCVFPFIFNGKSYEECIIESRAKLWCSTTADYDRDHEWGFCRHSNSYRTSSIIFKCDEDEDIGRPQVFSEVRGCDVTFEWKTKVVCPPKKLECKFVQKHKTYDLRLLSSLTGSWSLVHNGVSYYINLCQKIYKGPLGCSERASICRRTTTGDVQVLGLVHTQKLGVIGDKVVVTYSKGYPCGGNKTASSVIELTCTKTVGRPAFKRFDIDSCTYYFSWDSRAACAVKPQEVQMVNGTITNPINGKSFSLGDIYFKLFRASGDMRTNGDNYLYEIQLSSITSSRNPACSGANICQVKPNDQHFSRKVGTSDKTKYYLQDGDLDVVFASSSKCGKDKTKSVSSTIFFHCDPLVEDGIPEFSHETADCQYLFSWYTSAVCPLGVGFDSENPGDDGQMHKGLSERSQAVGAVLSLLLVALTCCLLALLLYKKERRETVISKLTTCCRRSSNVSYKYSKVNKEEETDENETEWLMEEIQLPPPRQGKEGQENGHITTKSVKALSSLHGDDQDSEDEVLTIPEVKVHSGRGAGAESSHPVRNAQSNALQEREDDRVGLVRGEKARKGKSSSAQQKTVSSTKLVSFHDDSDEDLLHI

[2] = target: T1, human CI-M6PR domain1-3His6; test: SEC-MALLS, equal concentrations
[3] = target: T1, human CI-M6PR domain1-3His6; test: in-tandem competitive BLI (Octet Red96); biotinylated human CI-M6PR domain1-3His6 on streptavidin sensors; purified VHHs at 400 nM; first association 30-90 s, second association 120-180 s
[4] = target: T1, human CI-M6PR domain1-3His6; test: in-tandem competitive BLI
[5] = target: T1, human CI-M6PR domain1-3His6; test: in-tandem competitive BLI (Octet Red96); biotinylated human CI-M6PR domain1-3His6 on streptavidin sensors; VHH7 and VHH8 purified at 400 nM, the other VHHs as periplasmic extracts of E. coli; first association 30-90 s, second association 120-180 s
[6] = target: T1, human CI-M6PR domain1-3His6; test: in-tandem competitive BLI, 400 nM
[7] = target: T1, human CI-M6PR domain1-3His6; test: SEC-MALLS, 1:1 and 1:3 molar mixtures, complex of 62 kDa

B1: humanized variant VHH7h3 (VHH)
VHH: DVQLVESGGGLVQPGGSLRLSCAASGIIFSDNRMDWYRQAPGKQREWVATLASYGWKTYADSVKGRFTISRDNTKNTVYLQMNSLRPEDTAVYYCKASSPVLNDIWGQGTLVTVSS
notes: Made in E. coli, IMAC purified; tag not specified
B1 was tested, and the binding [1] was “binds”.

B2: anti-CI-M6PR VHH7 (VHH)
VHH: QVQLQESGGGLVQPGGSLRLSCAASGIIFSDNRMDWYRQAPGKQREWVATLASYGWKTYADSVKGRFTISRDNTKNTVYLRMNSLKPEDTAVYYCKASSPVLNDIWGQGTQVTVSS
notes: Purified by IMAC, so tagged; Labelled with Alexa Fluor 488 (NHS ester) in the imaging experiments
In the case of B2, the binding [2] is reported as “binds”, the binding [3] is reported as “binds” and the binding [4] is reported as “binds”. The binding [5] was “binds” and the binding [1] was “binds”.

B3: humanized variant VHH7h1 (VHH)
VHH: EVQLVESGGGLVQPGGSLRLSCAASGIIFSDNRMDWYRQAPGKQREWVATLASYGWKTYADSVKGRFTISRDNSKNTVYLQMNSLRPEDTAVYYCKASSPVLNDIWGQGTLVTVSS
notes: as for B1
B3 was tested, and the binding [1] was “binds”.

B4: humanized variant VHH7h2 (VHH)
VHH: DVQLVESGGGLVQPGGSLRLSCAASGIIFSDNRMDWYRQAPGKQREWVATLASYGWKTYADSVKGRFTISRDNSKNTVYLQMNSLRPEDTAVYYCKASSPVLNDIWGQGTLVTVSS
notes: as for B1
For B4, the binding [1] was “binds”.

B5: anti-CI-M6PR VHH 1H11 (VHH)
VHH: QVQLQESGGGLVQPGGSLRLSCAASGIIFSDNRMDWYRQAPGKQREWVATLASYGWKTYADSVKDRFTISRDNAKNTVNLYMNSLQPEDTAVYYCNSGQYWGQGTQVTVSS
notes: Made in E. coli (pHEN6c), IMAC purified; tag not specified
For B5, the binding [3] was “binds”, the binding [6] was “binds” and the binding [1] was “binds”.

B6: anti-CI-M6PR VHH 1H52 (VHH)
VHH: QVQLQESGGGLVQPGGSLRLSCTASGFTWDSYVIGWFRQAPGKGREGVSCLDVDDGSIYYHDSAKGRFSISRDNAKNTVYLQMNSLKPEDTAVYYCAAVNRASMRFRRCLQVLRYDYWGQGTQVTVSS
notes: as for B5
B6 was tested, and the binding [6] was “binds”, the binding [5] was “binds” and the binding [1] was “binds”.

B7: humanized variant VHH8h2 (VHH)
VHH: DVQLVESGGGLVQPGGSLRLSCAASGRTFNTYNWGWFRQAPGKEREFVAAIRWSSSKTSYADSVKGRFTISRDNSKNTVYLQMNSLRPEDTAVYYCAASIVDFTTNPSHFGSWGQGTLVTVSS
notes: as for B1
B7 was tested, and the binding [1] was “binds”.

B8: anti-CI-M6PR VHH8 (VHH)
VHH: QVQLQESGGGLVQAGGSLRLSCEASGRTFNTYNWGWFRQAPGKEREFVAAIRWSSSKTSYADSVKGRFTISRDNAKNTIYLQMNSLKPEDTAVYYCAASIVDFTTNPSHFGSWGQGTQVTVSS
notes: as for B2
B8 was tested, and the binding [3] was “binds”, the binding [4] was “binds” and the binding [5] was “binds”. The binding [7] was “binds” and the binding [1] was “binds”.

B9: humanized variant VHH8h1 (VHH)
VHH: EVQLVESGGGLVQPGGSLRLSCAASGRTFNTYNWGWFRQAPGKEREFVAAIRWSSSKTSYADSVKGRFTISRDNSKNTVYLQMNSLRPEDTAVYYCAASIVDFTTNPSHFGSWGQGTLVTVSS
notes: as for B1
With B9 the binding [1] was “binds”.

B10: humanized variant VHH8h3 (VHH)
VHH: DVQLVESGGGLVQAGGSLRLSCAASGRTFNTYNWGWFRQAPGKEREFVAAIRWSSSKTSYADSVKGRFTISRDNSKNTVYLQMNSLRPEDTAVYYCAASIVDFTTNPSHFGSWGQGTLVTVSS
notes: as for B1
B10 was tested, and the binding [1] was “binds”.

B11: anti-CI-M6PR VHH1 (VHH)
VHH: QVQLQESGGGLVQPGGSLRLSCVASGFTFDRYWMNWLRQIPGKEIEWVSTINTGGTGTYYDDSVKGRFSISRDDAKNTLYLTMNSLKTEDTAVYYCARGATYYRGNSAIRGQGTQVTVSS
With B11 the binding [3] was “binds” and the binding [6] was “binds”.

B12: anti-CI-M6PR VHH5 (VHH)
VHH: QVQLQESGGGLVQAGGSLKLSCAAAGRTFSRLAMGWFRQAPGKEREFVAAISENGDSIHYSDSVKGRFAVSRDNAKNTVYLQMNSLKPEDTAIYYCAADRAAYYCSGSGCYPSRAPAAASYDYWGQGTQVTVSS
With B12 the binding [3] was “binds” and the binding [6] was “binds”.

Reference: patent US20240327525A1 (VIB VZW, published 2024)
